Consider 19 molecules from article PMC8967839.

The experiment concerns the target anaCyp40 with C-terminal Strep-tag (Anabaena sp. PCC 7120). The experiment is described as follows: affinity purification with mass spectrometry; Strep-tagged anaCyp40 from whole cell lysate of AFS-anacyp40-strep (1% β-DM, 100 mM Tris pH 8.0, 50 mM NaCl) on MagStrep type3 XT beads, 60 min at 4 °C; washes up to 100 mM NaCl and 0.5% Nonidet P-40; eluted with 50 mM D-biotin; wild-type Anabaena sp. as control; lysate not treated with RNAse or DNAse; LC-MS, p < 0.05.

These are yes or no findings as the source states them, for the method shown. In cells and extracts the contact can be indirect. A yes stands for co-enrichment or nearness to the bait. Other partners may have been found.

B1: S7 (protein, UniProt Q8YP61 1-156)
chain: MSRRGVIQRRPVPPDSVYNSRLVSMIIRRIMRHGKKSLAARIVYDALKTIEERTGNNALEVFERAVRNATPLVEVKARRVGGATYQVPMEVRTERGTTLALRWLVQFSRSRPGRTMASRLANELLDAANESGNAIRKREETHRMAEANKAFAHYRY
For B1, the binding result was “binds”.

B2: Ssb1 (protein, UniProt P0A4K0 1-119)
chain: MSINIVTLVGRVGTDPDIKYFESGSVKCRLTLAVNRRSKNDKPDWFTLELWDKTAEVAGNYVRKGSLIGVKGSLKFDSWSDRQTGVNRSTPVIRVDQLELLGSKQDRDGGSSDFAPENF
As for B2, the binding entry is given as “binds”.

B3: RpoO (protein, UniProt Q8YNB9 1-78)
chain: MLKRSKFETTQSQIMHRAEDLISAASNRYRITVQVANRAKRRRYEEFESAEDAMMKPVLRAIIEMSDELTQPEIIGEI
Turning to B3, the binding entry is listed as “binds”.

B4: PurC (protein, UniProt Q8YUR7 1-245)
chain: MSVHSKLYEGKAKILYTTDEPEVLLADFKDDATAFNAQKRGSIIGKGRINCSISSQLFQQLEASGIKTHFIDSPAPNQMRVKAVKIIPLEVVIRNIAAGSLSQQTGIELGTVLKQPLVEFYYKNDQLGDPLLTRDRLLLMELATAEQVEEITHLALQINDFLKNFWQNCGITLVDFKLEFGLDSQQQILLADEISPDTCRLWNTTEADPNRRVMDKDRFRRDLGNVEDAYQEVLQRVLTAVEIKN
Turning to B4, the binding result is reported as “binds”.

B5: S10 (protein, UniProt Q8YP64 1-105)
chain: MATLQQQKIRIRLQAFDRRLLDTSCEKIVDTANRTNATAIGPIPLPTKRKIYCVLRSPHVDKDSREHFETRTHRRIIDIYQPSSKTIDALMKLDLPSGVDIEVKL
In the case of B5, the binding entry is recorded as “binds”.

B6: RpoC2 (protein, UniProt P22705 1-1355)
chain: MTNEKMIFRNRVVDKGQLRNLISWAFTHYGTARTAVMADKLKDLGFRYATRAGVSISVDDLMVPPSKRSLLEAAEEEIRATEVRYQRGEITEVERFQKVIDTWNGTSEALKDEVVTHFKQTNPLNSVYMMAFSGARGNISQVRQLVGMRGLMADPQGEIIDLPIKTNFREGLTVTEYIISSYGARKGLVDTALRTADSGYLTRRLVDVSQDVIIREIDCGTTRGIPVRPMTEGSKTLIKLSTRLLGRVVGEDVIHPKTKEVIAPRNTPISDDLAKEIEKAGVAEVVVRSPLTCEAARSVCQHCYGWSLAHAKMVDLGEAVGIIAAQSIGEPGTQLTMRTFHTGGVFTGEVAQQVRSKMDGTIKLPRKLRTRTHRTRHGEDALFVESNGIMILEPRKEGSETPAPQEIHVTQGSTIYIVDGQQVKKGQLLAEVALGGRTTRTNTEKAVKDVASDLAGEVKFAEVVPEQKTDRQGNTTTTAARGGLIWILSGEVYNLPPGAELVVKNGDRVETNGVLAETKLTTIHGGVVRLPEATPGKSTREIEIITASVVLDQATVTVQSSQGRNNYLITTGNNQVFNLRATPGTKVQNGQVVAELIDDRYRTTTGGFLKFAGVEVQKKGKAKLGYEVVQGGTLLWIPEETHEVNKDISLLLVEDGQYVEAGTEVVKDIFCQNSGVVEVTQKNDILREVVVKPGELLMVDDPEAVIGRDNTLLQPGEELLGQVATELRYIQYVESPEGPALLSRPVVEFAVPSNPDVPSTTSVSQQTGRSIQMRAVQRLPYKDSERVKSVEGVELLRTQLVLEIEQEGEQEHNASPLAADIELIPDLEDADVQRLQLVILESLVLRRDIAADATQGSTQTSLEVKDGDTIVPGSVVARTQILSKEGGIVRGVQKGSEAVRRCLVLRHSDMATLNISAKPKVKAGDLIVAGTELAPGIFAEESGQIVGVKNAGESTTTQDAALSTQNYAVTIRAGRPYRVSPGAVLQIEDGDLVQRGDNLVLLVFERAKTGDIIQGLPRIEELLEARKPKEACILAKRGGEVKVVYGDGDEAIAIKVIESNGVVTDYPLGPGQNLAMPDGSVVPAGQPLSDGPSNPHEILEVFFSLGSEDGVYACASHALQKVQTFLVNEVQMVYQSQGIDIADKHIEVIVRQMTNKVRIDDGGDTTMLPGELVELRQVEQVNEAMAITGGARAQYTPVLLGITKASLNTDSFISAASFQETTRVLTEAAIEGKSDWLRGLKENVIIGRLIPAGTGYNTYDEPGMLEDYSTLETTSVLDETDDPLDMVLDDRTARAYNLDSPGLAETGFNNRRSILDDDELIADEIHDLVEAEVEVDDEVDDDYEDDDEDDDDYED
Turning to B6, the binding result was “binds”.

B7: IlvC (protein, UniProt Q8YUM5 1-331)
chain: MARMYYDEDANLDLLAGKTIAIIGYGSQGHAHALNLKDSGLNVIVGLYPGSKSAEKAQAAGLTVKNVADAANIADFIMILLPDEVQKTVYKNEIEPNLQEGNTLAFAHGFNIHFGQVVPPANVDVVMVAPKGPGHLVRRTYEQGQGVPALFAVYQDASGKARDRALSYAKGIGGTRGGVLETTFREETETDLFGEQAVLCGGLSALIKAGFETLVEAGYQPELAYFECLHEVKLIVDLVVEGGLAKMRDSISNTAEYGDYTRGPRIVNEQTKAEMRKVLSEIQSGQFAREFVLENQSGKPGFTAMRRQEAEHPIEEVGKDLRAMFSWLKKV
On to B7, for which the binding entry is on record as “binds”.

B8: S8 (protein, UniProt Q8YPJ2 1-133)
chain: MAANDTIADMLTRIRNANMARHQTTLVPATKMTRSIAKVLQEEGFIAEISEEGDEVKRNLVIALKYKGKNRQPLITALKRVSKPGLRVYSNRKELPRVLGGIGIAIISTSSGIMTDREARRQNVGGEVLCYVW
On to B8, for which the binding entry is reported as “binds”.

B9: CbbS (protein, UniProt P06514 1-109)
chain: MQTLPKERRYETLSYLPPLTDVQIEKQVQYILSQGYIPAVEFNEVSEPTELYWTLWKLPLFGAKTSREVLAEVQSCRSQYPGHYIRVVGFDNIKQCQILSFIVHKPSRY
With B9, the binding entry was “binds”.

B10: Asr0105 (protein, UniProt Q8Z0I8 1-88)
chain: MEIQLINIGFGNIVSANRVVAIVSPESAPIKRIITDARDKNQLIDATYGRRTRAVIITDSSHVILSAIQPETVANRFVISREHQSVEN
As to B10, the binding result is given as “binds”.

B11: Gap1 (protein, UniProt P80506 1-343)
chain: MAKLKVGINGFGRIGRLVLRAGINNPNIEFVGINDLVPPDNLAYLLKYDSTHGRLRSQVETKDDGIVIDGHFIPCVSVRNPAELPWGKLGADYVVESTGLFTDSEGASKHLQAGARRVIISAPTKDPDRVRTLLVGVNHDLFDPSKDLIVSNASCTTNCLAPIAKVINDNFGLTEGLMTTVHAMTATQPTVDGPSKKDWRGGRGAAQNIIPSSTGAAKAVALVLPELKGKLTGMAFRVPTPDVSVVDLTFKTAKATSYKEICAAMKQASEGSLAGILGYTDEEVVSTDFQGDTHSSIFDAGAGIELNSNFFKVVAWYDNEWGYSNRVVDLMLSMVQKEQLAAV
On to B11, for which the binding result was “binds”.

B12: RecA (protein, UniProt P58552 1-357)
chain: MAINTDTSGKQKALTMVLNQIERSFGKGAIMRLGDATRMRVETISTGALTLDLALGGGLPKGRVIEIYGPESSGKTTVALHAIAEVQKEGGIAAFVDAEHALDPTYASALGVDIQNLLVSQPDTGESALEIVDQLVRSAAVDIVVIDSVAALVPRAEIEGDMGDAHVGLQARLMSQALRKITGNIGKSGCTVIFINQLRQKIGVTYGSPETTTGGNALKFYASVRLDIRRIQTLKKGTDEFGNRVKVKVAKNKVAPPFRIAEFDIIFGKGVSTLGCLVDLAEETGILIRKGAWYSYNGDNISQGRDNAIKYLEEKPEFSEQIKQQVREKLDKGAVVSANSVAKNNEDDEDEDVEEEE
With B12, the binding result is given as “binds”.

B13: L1 (protein, UniProt Q8YLJ7 1-238)
chain: MTKKVSRRLRELQAKVEDREYGPLDALGLLKETATAKFGEAAEAHIRLGIDPKYTDQQLRTTVALPKGTGQIVRVAVIARGEKVTEASNAGADVVGSEELIDEIQKGRMDFDKLIATPDVMPQVAKLGKMLGPRGLMPSPKGGTVTFDVASAIAEFKAGKLEFRADRTGIVHVMFGKASFSPEDLLVNLKALQETIDRNRPSGAKGRYWRTFYVSATMGPSIRVDINALRDYKLTEAA
As to B13, the binding result is on record as “binds”.

B14: S5 (protein, UniProt Q8YPJ5 1-174)
chain: MATGRRKANRTKKEETNWQERVIQIRRVSKVVKGGKKLSFRAIVVVGNERGQVGVGVGKASDVIGAVKKGVADGKKHLIDIPITKSNSIPHPIDGVGGGAKVMMRPAAPGTGVIAGGAVRTVLELAGVRNVLAKQLGSNNPLNNARAAVNALSTLRTLAEVAEDRGIAIEKLYI
For the molecule B14, the binding entry was “binds”.

B15: L5 (protein, UniProt Q8YPJ1 1-182)
chain: MATTRLKTLYQETIVPKLTQQFQYTNVHQVPKLVKITVNRGLGEAAQNAKSLEASLTEIATITGQKPVVTRAKKAIAGFKIRQGMPVGIMVTLRGERMYAFFDRLISLSLPRIRDFRGISPKSFDGRGNYTLGVREQLIFPEIEYDSIDQIRGLDISIITTAKNDEEGRALLKEFGMPFRDQ
Regarding B15, the binding entry is recorded as “binds”.

B16: L22 (protein, UniProt Q8YPI4 1-119)
chain: MATDTTEVKAIARFIRMSPYKVRRVLDQIRGLSYREALIILEFMPYRATEPVLTLLRSAAANAEHNAGLDRAELVITQAYADQGPVLKRFQPRAQGRAYQIRKPTCHITLAVAANAGAK
Turning to B16, the binding result is “binds”.

B17: RpoA (protein, UniProt Q8YPK3 1-315)
chain: MAQFQIECVESNTEESRNHYSKFILEPLERGQGTTVGNALRRVLLSNLEGTAVTAVRIAGVSHEFATVPGVREDVLEIIMRMKEVILKSYSSQAQIGRLLVNGPTTITASHFDLPSEVEVIDPTQYVATIAEGGKLEMEFRIERGKGYRTVERGREEATSLDFLQIDSIFMPVRKVNYSVEEVRADGSIPKDRLLLEVWTNGSISPQEALSSAAGILVDLFNPLKDISLEPTDTNSDIPDDPTAQIPIEELQLSVRAYNCLKRAQVNSVADLLDYTQEDLLEIKNFGQKSAEEVVEALQRRLGITLPQERSSKHN
With B17, the binding result is given as “binds”.

B18: S21 (protein, UniProt P0A4B7 1-62)
chain: MTQIVVGENEHIESALRRFKREVSKAGIFQDMRKHRHFETPIEKSKRKKLALHKQSKRRFRT
For the molecule B18, the binding entry is on record as “binds”.

B19: L15 (protein, UniProt Q8YPJ6 1-148)
chain: MRLNDVKPQKGSKKRRRRVGRGISAGQGASAGLGMRGQKSRSGSGTRPGFEGGQQPLYRRIPKLKGFPVVNRKIYTTINVEKLADLPANTEVTLESLRAAGILTAAKGPLKILGNGDLGVALNVKAAAFTGQARSKIEAAGGSCEVLG
Turning to B19, the binding result was “binds”.
